MIC data for one compound are collected here from US20010006660A1, “LOW-RIGIDITY LIPOSOMAL FORMULATION” (priority 1999, published 2001).

The test concerns Candida albicans, strain 7238. Put plainly: MIC of yeast strain. It is filed as cell-based. Here is the method: Yeast respiratory infections are a major problem in immunocompromised patients. To evaluate the fungicide activity of the liposomal-amphotericin B formulation produced according to the present invention (DPPC/DMPG), in vitro tests were performed against Candida albicans, strain 7238, MIC=1 μg/ml. To culture tubes containing 22.5 ml of C. albicans cells (final cell concentration of 103/ml), 7.5 ml of RPMI medium 1640 containing liposome-amphotericin B (final concentration of 0.125 μg/ml), free amphotericin B (final concentration of 0.125 μg/ml), or control PBS were added at time zero. Experiments were done in triplicate. At times 0, 3, 6, 12, 24, and 36 hours following the addition of antibiotic or control, 1.5 ml samples were collected and serial 10 fold dilutions were made and spread in triplicate on proteose peptone agar plates. CFU were counted after 24 hour and 48 hour incubations ar 37° C. under CO2. Counts were expressed in log CFU per ml of culture media.

As to `C[C@@H]1[C@H](O)[C@@H](C)/C=C/C=C/C=C/C=C/C=C/C=C/C=C/[C@H](O[C@@H]2O[C@H](C)[C@@H](O)[C@H](N)[C@@H]2O)C[C@@H]2O[C@](O)(C[C@@H](O)C[C@@H](O)[C@H](O)CC[C@@H](O)C[C@@H](O)CC(=O)O[C@H]1C)C[C@H](O)[C@H]2C(=O)O` [amphotericin B], the MIC came to 1 µg/mL.

By MIC is commonly meant the lowest concentration found to suppress growth.
